The list is a part of this screen's results and no random one: it gathers tests that were run many times, whatever their T/C, doses with no T/C, and many T/C values between a quarter and a half above the control. Other doses and runs of a compound stand elsewhere. T/C: endpoint of the treated group in % of that of the vehicle group. Some entries give survivors of the animals treated and no T/C: the source files T/C as zero there, which appears to mark a toxic dose or a test without result, not a measured value. Some survivor counts are full or nearly so, which does not show that the dose was tolerated: the source hardly ever lists a survival T/C far under the control, and the zero likely stands for such cases as well. Counts of survivors are from the toxicity check (mostly the fifth day) where no day follows; animals may have died later. Schedules are NCI's codes, read here as Q, the interval in days (D) or hours (H), X, the number of doses. For survival time, the PubChem record calls one and a half times the control and up active, and a quarter to a half above the control has no call in these data; cut-offs in other NCI protocols can differ. Signs of the kind (2×) count equal records among those shown. Some T/C values are followed by the survivors on the day toxicity was checked, most often the fifth; without a count, all were alive then. Some doses were run more than once; the results are listed from low to high.
System: P388 leukemia ip, CD2F1 mice, survival T/C
Test: NCI In Vivo Anticancer Drug Screen. Data for tumor model P388 Leukemia (intraperitoneal) in CD2F1 (CDF1) mice
Conditions: T/C endpoint: median survival time, higher T/C = longer survival

**Q.** With `COc1cccc2c1C(=O)c1c(O)c3c(c(O)c1C2=O)C[C@@](O)(C(=O)CO)C[C@@H]3OC1CC(N)C(O)C(C)O1` (some centres not stated) as the compound, how does the T/C (dose: 0.5 mg/kg/injection, schedule: Q04DX003 (ip), vehicle: saline, evaluated on day 9) read?
**A.** 122 % of control

**Q.** What about the T/C (dose: 0.5 mg/kg/injection, schedule: Q04DX003 (ip), vehicle: saline, evaluated on day 30) of the same compound?
**A.** 97 [4 of 6 alive], 112, 114, 125 % of control (2×)

**Q.** And the T/C (dose: 0.5 mg/kg/injection, schedule: Q04DX003 (ip), vehicle: saline, evaluated on day 45)?
**A.** 140 and 161 % of control

**Q.** And the T/C (dose: 0.5 mg/kg/injection, schedule: Q04DX003 (ip), vehicle: water, evaluated on day 30)?
**A.** 138 and 163 % of control

**Q.** What about the T/C (dose: 0.5 mg/kg/injection, schedule: Q04DX003 (ip), vehicle: water, evaluated on day 40) of the same compound?
**A.** 116 % of control

**Q.** What about the T/C (dose: 0.5 mg/kg/injection, schedule: Q04DX003 (ip), vehicle: water, evaluated on day 45) of the same compound?
**A.** 116, 120, 139, 142, 153 % of control

**Q.** And the T/C (dose: 0.62 mg/kg/injection, schedule: Q01DX001 (ip), vehicle: water)?
**A.** 144 % of control

**Q.** And the T/C (dose: 0.63 mg/kg/injection, schedule: Q04DX003 (ip), vehicle: saline)?
**A.** 132 % of control

**Q.** And the T/C (dose: 0.65 mg/kg/injection, schedule: Q01DX009 (ip), vehicle: saline, evaluated on day 30)?
**A.** 145 % of control

**Q.** And the T/C (dose: 0.65 mg/kg/injection, schedule: Q01DX009 (ip), vehicle: saline, evaluated on day 45)?
**A.** 169 % of control

**Q.** And the T/C (dose: 0.65 mg/kg/injection, schedule: Q01DX009 (ip), vehicle: saline, evaluated on day 60)?
**A.** 171 and 190 % of control

**Q.** And the T/C (dose: 0.75 mg/kg/injection, schedule: Q04DX003 (ip), vehicle: water)?
**A.** 127 % of control

**Q.** What about the T/C (dose: 0.78 mg/kg/injection, schedule: Q01DX009 (ip), vehicle: water, evaluated on day 30) of the same compound?
**A.** 168, 175, 181, 186 (2×), 189, 193 (2×), 197, 206, 212, 213, 248 % of control

**Q.** What about the T/C (dose: 0.78 mg/kg/injection, schedule: Q01DX009 (ip), vehicle: water, evaluated on day 45) of the same compound?
**A.** 96, 125, 154, 172, 174 (2×), 179, 181 (2×), 183, 185, 186, 186 [5 of 6 alive], 194 (2×), 198, 200 (2×), 201, 203, 233, 245, 255, 267 % of control

**Q.** What about the survivor count (dose: 0.78 mg/kg/injection, schedule: Q01DX009 (ip), vehicle: water) of the same compound?
**A.** 6 of 6

**Q.** What about the T/C (dose: 0.97 mg/kg/injection, schedule: Q04DX002 (ip), vehicle: saline) of the same compound?
**A.** 145 % of control

**Q.** What about the T/C (dose: 0.97 mg/kg/injection, schedule: Q04DX003 (ip), vehicle: saline, evaluated on day 45) of the same compound?
**A.** 101, 148, 153, 158, 160, 166, 167, 168, 170, 178, 191 % of control

**Q.** What about the T/C (dose: 0.97 mg/kg/injection, schedule: Q04DX003 (ip), vehicle: saline, evaluated on day 60) of the same compound?
**A.** 149 % of control

**Q.** And the T/C (dose: 1.0 mg/kg/injection, schedule: Q01DX001 (ip), vehicle: DMSO)?
**A.** 141 % of control

**Q.** What about the T/C (dose: 1.0 mg/kg/injection, schedule: Q01DX001 (ip), vehicle: other) of the same compound?
**A.** 136 % of control [8 of 10 alive]

**Q.** What about the T/C (dose: 1.0 mg/kg/injection, schedule: Q01DX001 (ip), vehicle: saline, evaluated on day 5) of the same compound?
**A.** 122 % of control (2×)

**Q.** What about the T/C (dose: 1.0 mg/kg/injection, schedule: Q01DX001 (ip), vehicle: saline, evaluated on day 7) of the same compound?
**A.** 140 % of control

**Q.** And the T/C (dose: 1.0 mg/kg/injection, schedule: Q01DX001 (ip), vehicle: saline, evaluated on day 30)?
**A.** 148 and 166 % of control

**Q.** And the T/C (dose: 1.0 mg/kg/injection, schedule: Q01DX001 (ip), vehicle: saline, evaluated on day 35)?
**A.** 131 % of control

**Q.** What about the T/C (dose: 1.0 mg/kg/injection, schedule: Q01DX001 (ip), vehicle: saline, evaluated on day 45) of the same compound?
**A.** 111 % of control

**Q.** And the T/C (dose: 1.0 mg/kg/injection, schedule: Q01DX001 (ip), vehicle: saline, evaluated on day 60)?
**A.** 117 % of control

**Q.** And the T/C (dose: 1.0 mg/kg/injection, schedule: Q01DX005 (ip), vehicle: saline)?
**A.** 149 % of control

**Q.** What about the T/C (dose: 1.0 mg/kg/injection, schedule: Q01DX009 (ip), vehicle: saline, evaluated on day 5) of the same compound?
**A.** 238 and 277 % of control

**Q.** What about the T/C (dose: 1.0 mg/kg/injection, schedule: Q01DX009 (ip), vehicle: saline, evaluated on day 30) of the same compound?
**A.** 126, 128, 200 % of control

**Q.** What about the T/C (dose: 1.0 mg/kg/injection, schedule: Q01DX009 (ip), vehicle: saline, evaluated on day 45) of the same compound?
**A.** 189, 203, 223 % of control

**Q.** What about the T/C (dose: 1.0 mg/kg/injection, schedule: Q01DX009 (ip), vehicle: saline, evaluated on day 60) of the same compound?
**A.** 154, 172, 201 % of control

**Q.** And the T/C (dose: 1.0 mg/kg/injection, schedule: Q01DX009 (ip), vehicle: water, evaluated on day 5)?
**A.** 193 % of control

**Q.** And the T/C (dose: 1.0 mg/kg/injection, schedule: Q01DX009 (ip), vehicle: water, evaluated on day 30)?
**A.** 94, 114, 117 (2×), 141, 153, 156, 157, 173, 185, 186, 187 (2×), 192, 194 (2×), 198 (2×), 199 (2×), 200, 207, 209 (4×), 212, 213, 214, 221, 223, 230, 232, 266, 272 % of control

**Q.** What about the T/C (dose: 1.0 mg/kg/injection, schedule: Q01DX009 (ip), vehicle: water, evaluated on day 45) of the same compound?
**A.** 157, 171, 178, 183, 185, 186, 188, 192 (2×), 201, 202, 203, 204, 205 (2×), 216, 223 (2×), 230, 231, 236, 238, 241, 271, 295 % of control

**Q.** And the T/C (dose: 1.0 mg/kg/injection, schedule: Q01DX009 (ip), vehicle: water, evaluated on day 60)?
**A.** 193 % of control

**Q.** What about the survivor count (dose: 1.0 mg/kg/injection, schedule: Q01DX009 (ip), vehicle: water) of the same compound?
**A.** 6 of 6

**Q.** And the T/C (dose: 1.0 mg/kg/injection, schedule: Q03HX008 (ip), vehicle: saline)?
**A.** 137 % of control

**Q.** What about the T/C (dose: 1.0 mg/kg/injection, schedule: Q04DX003 (ip), vehicle: saline, evaluated on day 5) of the same compound?
**A.** 157 and 160 % of control

**Q.** And the T/C (dose: 1.0 mg/kg/injection, schedule: Q04DX003 (ip), vehicle: saline, evaluated on day 8)?
**A.** 137 % of control

**Q.** What about the T/C (dose: 1.0 mg/kg/injection, schedule: Q04DX003 (ip), vehicle: saline, evaluated on day 9) of the same compound?
**A.** 125 % of control

**Q.** And the T/C (dose: 1.0 mg/kg/injection, schedule: Q04DX003 (ip), vehicle: saline, evaluated on day 30)?
**A.** 104, 108 (2×), 109 (2×), 112 (2×), 114, 115, 117, 117 [5 of 6 alive on day 9], 122, 123, 124 (2×), 130, 135 [5 of 6 alive], 145, 176 % of control

**Q.** What about the T/C (dose: 1.0 mg/kg/injection, schedule: Q04DX003 (ip), vehicle: saline, evaluated on day 45) of the same compound?
**A.** 153, 156, 187 % of control

**Q.** And the T/C (dose: 1.0 mg/kg/injection, schedule: Q04DX003 (ip), vehicle: saline, evaluated on day 60)?
**A.** 160 % of control

**Q.** And the T/C (dose: 1.0 mg/kg/injection, schedule: Q04DX003 (ip), vehicle: water, evaluated on day 30, list 1 of 2)?
**A.** 96 [5 of 6 alive], 102, 107, 108, 109 (2×), 111, 111 [5 of 6 alive], 113 (2×), 114 (2×), 115, 116, 117 (2×), 118, 119, 120, 121, 122 (2×), 123, 124, 125, 127, 128, 129, 130 (2×), 131, 133, 136, 145, 157 % of control

**Q.** And the T/C (dose: 1.0 mg/kg/injection, schedule: Q04DX003 (ip), vehicle: water, evaluated on day 30, list 2 of 2)?
**A.** 100, 103, 108, 109 (2×), 110, 111, 112, 113, 114 (3×), 116, 117 (2×), 118, 119, 120 (2×), 121, 122, 123 (2×), 124, 127 (2×), 129, 130 (3×), 133 (2×), 142 [5 of 6 alive], 155, 172 % of control

**Q.** And the T/C (dose: 1.0 mg/kg/injection, schedule: Q04DX003 (ip), vehicle: water, evaluated on day 35)?
**A.** 110, 116 [5 of 6 alive on day 9], 118, 119 (2×), 121, 123 (2×), 126, 127 (2×), 133, 141, 142 % of control

**Q.** And the T/C (dose: 1.0 mg/kg/injection, schedule: Q04DX003 (ip), vehicle: water, evaluated on day 40)?
**A.** 107, 120, 126, 128, 134 % of control

**Q.** What about the T/C (dose: 1.0 mg/kg/injection, schedule: Q04DX003 (ip), vehicle: water, evaluated on day 45) of the same compound?
**A.** 103, 107, 108 (2×), 109 (3×), 109 [5 of 6 alive on day 9], 110, 111 (3×), 112, 113 (2×), 114 (3×), 115, 116 (2×), 117 (3×), 118, 119 (3×), 121, 122 (2×), 123 (2×), 124, 125 (2×), 126 (3×), 128, 128 [5 of 6 alive], 129 (2×), 130, 132, 133, 148, 157, 161, 162, 166, 173, 174, 182 % of control

**Q.** What about the T/C (dose: 1.0 mg/kg/injection, schedule: Q04DX003 (ip), vehicle: water, evaluated on day 46) of the same compound?
**A.** 173 % of control

**Q.** And the T/C (dose: 1.0 mg/kg/injection, schedule: Q04DX003 (ip), vehicle: water, evaluated on day 50)?
**A.** 109, 112, 115, 120, 138 % of control

**Q.** What about the T/C (dose: 1.0 mg/kg/injection, schedule: Q04DX003 (ip), vehicle: water, evaluated on day 60) of the same compound?
**A.** 113 and 129 % of control

**Q.** And the T/C (dose: 1.04 mg/kg/injection, schedule: Q04DX002 (ip), vehicle: saline)?
**A.** 148 % of control
